Taken from: PubChem BioAssay AID1508597 (Cure First, 2020)
This is a random part of the about 2,100 reagents, under one of the conditions tested. 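Calls flag viability under 80% in either arm, not effects specific to rucaparib; the reference for percent is not stated.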 A number with no mark means an inactive call. Some reagents were tested in more than one well and are listed for each. The record does not give: the 100% reference.

Purpose: 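Survival screen with siRNA in ovarian cancer cells derived from patients, with or without rucaparib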 (primary screen)
Cells: human ovarian carcinoma lines grown from tumours: OCI-P5x (papillary serous) and OCI-C5x (clear cell)
Reagent: siRNA pool against human genes, 1.25 pmol siRNA per well
Timing: 72 h or 96 h, depending on the cell culture
Conditions: rucaparib 20 µM (about IC30) or vehicle, present until read-out
Rucaparib or vehicle: Rucaparib
Cell line: OCI-C5x (clear cell)
Measurement: 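Luminescent ATP-based viability assay read 72 or 96 h after transfection, depending on culture, given as normalised percent viability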
Scale: viability, normalised: higher = more viable cells remaining
Call rule: 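Active when normalised viability falls below 80 percent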
Meaning of the calls: active = viability under 80%; inactive = viability 80% or more

How did the screen score CDK19, technical replicate 1?
viability, normalised (%): 41.7 (active)

With CDK19, technical replicate 2, what was measured?
viability, normalised (%): 43.2 (active)

For CDK19, technical replicate 3, what was measured?
viability, normalised (%): 40.7 (active)

With CLU, technical replicate 1, how do the results read?
viability, normalised (%): 56.5 (active)

For CLU, technical replicate 2, what does the deposit list?
viability, normalised (%): 52.9 (active)

With CLU, technical replicate 3, what does the deposit list?
viability, normalised (%): 39.6 (active)

Which result is listed for PDE6C, technical replicate 1?
viability, normalised (%): 76.1 (active)

What did the screen give for PDE6C, technical replicate 2?
viability, normalised (%): 47.6 (active)

For PDE6C, technical replicate 3, what does the deposit list?
viability, normalised (%): 52.9 (active)

Look-ups from the list.
Result for CLU, technical replicate 2 under “viability, normalised (%)”: 52.9 (active)
Under “viability, normalised (%)”, PDE6C, technical replicate 1 reads 76.1 (active)

Next records follow.
What did the screen give for UIMC1, technical replicate 1?
viability, normalised (%): 59 (active)

For UIMC1, technical replicate 1, what does the deposit list?
viability, normalised (%): 62.5 (active)

What did the screen give for UIMC1, technical replicate 2?
viability, normalised (%): 60.3 (active)

With UIMC1, technical replicate 2, how do the results read?
viability, normalised (%): 51.9 (active)

What is on record for UIMC1, technical replicate 3?
viability, normalised (%): 50.8 (active)

With UIMC1, technical replicate 3, what was measured?
viability, normalised (%): 63.5 (active)
